Source: article PMC9516332 (Frontiers in Oncology, 2022)
Like-named read-outs stand apart in the source and are kept apart here.

Test system: 134 cancer cell lines
Assay: Cell viability assay (ATPlite, 72 hours), IC50 on cancer cell line panel
Conditions: Homo sapiens

IC50 (SK-N-SH, read-out: IC50 in cell proliferation assay): 6.92 µM
IC50 (SW48, read-out: IC50 in cell proliferation assay): 0.004 µM
Structure (SMILES): COc1cc2ncnc(Nc3ccc(F)c(Cl)c3)c2cc1OCCCN1CCOCC1 [gefitinib]
